{"sequences": {"note": "Sequences of proteins named here, by UniProt entry; tags and fusion partners are left off. A change or cut given only in a name is not applied to a line headed by its entry.", "UniProt Q8WZA2": "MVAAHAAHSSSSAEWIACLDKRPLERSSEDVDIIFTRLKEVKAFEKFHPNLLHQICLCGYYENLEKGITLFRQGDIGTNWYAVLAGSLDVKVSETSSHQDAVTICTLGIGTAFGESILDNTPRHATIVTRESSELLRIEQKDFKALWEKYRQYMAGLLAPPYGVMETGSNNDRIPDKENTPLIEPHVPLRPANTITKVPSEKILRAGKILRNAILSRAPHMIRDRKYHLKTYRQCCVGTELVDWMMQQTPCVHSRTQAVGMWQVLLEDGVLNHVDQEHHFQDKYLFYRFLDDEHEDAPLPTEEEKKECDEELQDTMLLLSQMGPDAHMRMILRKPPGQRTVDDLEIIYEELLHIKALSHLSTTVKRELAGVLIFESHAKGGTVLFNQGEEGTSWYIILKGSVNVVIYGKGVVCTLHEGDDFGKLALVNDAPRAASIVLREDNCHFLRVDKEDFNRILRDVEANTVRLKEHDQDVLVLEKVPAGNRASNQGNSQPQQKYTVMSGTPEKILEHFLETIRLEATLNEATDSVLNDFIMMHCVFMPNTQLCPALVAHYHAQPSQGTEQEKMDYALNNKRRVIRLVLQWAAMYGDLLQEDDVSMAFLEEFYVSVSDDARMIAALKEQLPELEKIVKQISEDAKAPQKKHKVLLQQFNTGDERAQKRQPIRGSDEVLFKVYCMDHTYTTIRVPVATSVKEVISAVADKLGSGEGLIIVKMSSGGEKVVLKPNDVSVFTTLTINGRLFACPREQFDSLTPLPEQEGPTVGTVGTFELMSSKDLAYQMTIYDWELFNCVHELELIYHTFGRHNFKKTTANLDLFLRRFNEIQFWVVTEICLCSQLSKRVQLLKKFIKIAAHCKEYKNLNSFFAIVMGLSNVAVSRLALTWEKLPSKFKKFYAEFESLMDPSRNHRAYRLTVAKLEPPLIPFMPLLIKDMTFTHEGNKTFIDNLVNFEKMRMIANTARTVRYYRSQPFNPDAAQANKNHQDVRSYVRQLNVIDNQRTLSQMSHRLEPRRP", "UniProt Q99828": "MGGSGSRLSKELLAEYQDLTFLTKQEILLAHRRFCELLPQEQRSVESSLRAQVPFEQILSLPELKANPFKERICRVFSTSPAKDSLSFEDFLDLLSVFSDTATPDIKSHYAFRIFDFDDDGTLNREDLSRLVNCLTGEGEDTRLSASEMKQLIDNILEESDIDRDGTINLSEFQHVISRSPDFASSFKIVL", "UniProt Q9Y253": "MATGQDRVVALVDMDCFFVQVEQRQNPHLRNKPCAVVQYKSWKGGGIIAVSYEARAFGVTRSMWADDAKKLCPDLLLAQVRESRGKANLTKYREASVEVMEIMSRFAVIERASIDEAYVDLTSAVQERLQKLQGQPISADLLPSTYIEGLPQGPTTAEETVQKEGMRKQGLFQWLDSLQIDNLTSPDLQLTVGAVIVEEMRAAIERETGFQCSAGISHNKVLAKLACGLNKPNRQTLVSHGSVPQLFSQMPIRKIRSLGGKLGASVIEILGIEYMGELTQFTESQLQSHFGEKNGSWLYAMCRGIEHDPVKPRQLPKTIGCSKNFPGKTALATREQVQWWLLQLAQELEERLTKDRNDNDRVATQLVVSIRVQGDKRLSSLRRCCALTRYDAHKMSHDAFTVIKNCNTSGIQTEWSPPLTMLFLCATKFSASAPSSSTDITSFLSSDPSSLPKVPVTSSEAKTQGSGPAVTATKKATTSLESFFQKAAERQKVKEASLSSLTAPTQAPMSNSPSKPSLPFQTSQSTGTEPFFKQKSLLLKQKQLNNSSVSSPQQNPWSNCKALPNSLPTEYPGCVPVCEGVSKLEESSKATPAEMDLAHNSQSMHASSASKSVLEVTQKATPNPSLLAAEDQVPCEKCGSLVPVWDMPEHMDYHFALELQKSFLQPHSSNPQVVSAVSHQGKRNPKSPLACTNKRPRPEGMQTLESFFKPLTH", "UniProt Q96RI1": "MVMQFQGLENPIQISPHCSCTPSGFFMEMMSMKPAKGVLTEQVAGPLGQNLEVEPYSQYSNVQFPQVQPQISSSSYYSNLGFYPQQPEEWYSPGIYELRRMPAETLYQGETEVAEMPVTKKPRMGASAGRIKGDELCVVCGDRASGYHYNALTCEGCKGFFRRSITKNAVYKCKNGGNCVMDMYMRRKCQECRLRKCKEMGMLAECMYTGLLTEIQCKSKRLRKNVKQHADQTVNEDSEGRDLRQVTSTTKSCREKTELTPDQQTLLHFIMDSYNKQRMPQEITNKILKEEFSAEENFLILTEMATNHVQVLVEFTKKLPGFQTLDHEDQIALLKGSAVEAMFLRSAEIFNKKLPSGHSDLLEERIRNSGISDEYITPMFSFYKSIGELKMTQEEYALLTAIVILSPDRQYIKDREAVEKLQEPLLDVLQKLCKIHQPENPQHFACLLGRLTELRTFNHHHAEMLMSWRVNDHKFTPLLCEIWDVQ", "UniProt P10828": "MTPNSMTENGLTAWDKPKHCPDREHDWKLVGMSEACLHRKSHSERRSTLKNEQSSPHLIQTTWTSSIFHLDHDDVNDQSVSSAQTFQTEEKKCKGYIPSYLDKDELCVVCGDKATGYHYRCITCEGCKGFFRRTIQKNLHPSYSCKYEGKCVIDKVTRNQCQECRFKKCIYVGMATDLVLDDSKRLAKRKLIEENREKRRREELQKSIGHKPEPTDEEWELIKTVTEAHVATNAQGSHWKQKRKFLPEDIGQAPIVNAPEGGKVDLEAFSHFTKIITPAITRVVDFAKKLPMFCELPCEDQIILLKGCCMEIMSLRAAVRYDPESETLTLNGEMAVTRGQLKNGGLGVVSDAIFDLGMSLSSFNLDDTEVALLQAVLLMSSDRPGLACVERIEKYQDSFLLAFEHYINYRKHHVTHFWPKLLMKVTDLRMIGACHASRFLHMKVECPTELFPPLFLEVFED"}, "source": "PubChem BioAssay (NCATS)", "key": {"[1]": {"assay": "Quantitative High-Throughput drug screen in 47 multiple myeloma cell lines against the NCATS MIPE library collection: KMS27_JCRB cell viability assay (AID 1918970); further: potency means the concentration at half of the fitted maximal effect; nearly all actives have a fitted effect of over 30% in size", "details": "KMS27 myeloma cells, CellTiter-Glo ATP viability, 48 h; series mostly up to 45.8 µM", "outline": "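ATP-based viability (CellTiter-Glo luminescence) is measured in cells treated 48 h with approved and investigational drugs at 37 °C. Controls are DMSO-only wells for full viability and media-only wells for none.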"}, "[2]": {"assay": "Quantitative High-Throughput drug screen in 47 multiple myeloma cell lines against the NCATS MIPE library collection: NCIH929_DSMZ cell viability assay (AID 1918978); further: potency means the concentration at half of the fitted maximal effect; nearly all actives have a fitted effect of over 35% in size", "details": "NCI-H929 myeloma viability, CellTiter-Glo ATP, 48 h; series mostly up to 45.8 µM", "outline": "(§1)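 Cells were exposed to library compounds for 48 hours, after which ATP was measured by CellTiter-Glo. Signal was taken as median relative luminescence units.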"}, "[3]": {"assay": "Quantitative High-Throughput drug screen in 47 multiple myeloma cell lines against the NCATS MIPE library collection: KMS28PE_JCRB cell viability assay (AID 1918983)", "details": "KMS28PE multiple myeloma viability, CellTiter-Glo ATP, 48 h; series mostly up to 45.8 µM", "outline": "as §1"}, "[4]": {"assay": "Quantitative High-Throughput drug screen in 47 multiple myeloma cell lines against the NCATS MIPE library collection: OPM2_DSMZ cell viability assay (AID 1919872)", "details": "OPM2 myeloma viability, CellTiter-Glo ATP luminescence, 48 h; series mostly up to 45.8 µM", "outline": "(§2)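 Primary qHTS used for cherry-picking: cells at 500/well, library compounds for 48 h (37C, 5% CO2), luminescent ATP assay.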"}, "[5]": {"assay": "Quantitative High-Throughput drug screen in 47 multiple myeloma cell lines against the NCATS MIPE library collection: KMS11_JCRBsus cell viability assay (AID 1919873)", "details": "KMS11 myeloma viability, CellTiter-Glo ATP luminescence, 48 h; series mostly up to 45.8 µM", "outline": "as §1"}, "[6]": {"assay": "ZIKV-mCherry secondary qHTS for Zika virus inhibitors (AID 1347158)", "details": "Vero cells, ZIKV-mCherry infection imaging, 48-72 h; series mostly up to 49.2 µM", "outline": "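Percent infection is the share of Hoechst-identified Vero nuclei with mCherry signal above 450 RFU (3 SD over negative controls). Cells were infected with recombinant ZIKV-mCherry at MOI 1 after compound addition and imaged 48–72 h later.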"}, "[7]": {"target": "Rap guanine nucleotide exchange factor 4 (Homo sapiens) (UniProt Q8WZA2)", "assay": "Confirmatory qHTS for antagonist of cAMP-regulated guanine nucleotide exchange factor 4 (EPAC2) (AID 1645885)", "details": "EPAC2 Rap1B-BODIPY-GDP exchange fluorescence, biochemical; series mostly up to 114 µM"}, "[8]": {"assay": "Cellular Toxicity (caspase-3) HUV-EC-C (AID 656)", "details": "HUV-EC-C cells, caspase-3 activation (apoptosis); series mostly up to 92.2 µM", "outline": "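qHTS; HUV-EC-C, 1000 cells/well; 5 hr settle, 16 hr cmpd, 37°C; Caspase-Glo 3/7, 20 min RT; luminescence. Norm: DMSO = 0%, tamoxifen 100 uM = 100%. Hill-fit AC50.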"}, "[9]": {"assay": "Cell Viability - BJ (AID 421; calls by dose curve)", "details": "BJ fibroblast viability, qHTS", "outline": "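Luminescent ATP signal (CellTiter-Glo, 20 min at room temperature) served as the read-out of viable BJ cells after 40 hours of compound treatment. Responses were scaled between DMSO and 100 uM tamoxifen, and AC50 values were obtained by Hill modeling.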"}, "[10]": {"target": "Calcium and integrin-binding protein 1 (Homo sapiens) (UniProt Q99828)", "assay": "Validation qHTS for Identification of Calcium Integrin Binding protein 1 (CIB1) Competitor (AID 1508618)", "details": "CIB1-GST / FITC-alphaIIb peptide fluorescence polarization; series mostly up to 114 µM", "outline": "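CIB1-GST (1 uM final) in 5 mM HEPES pH 7.4, 125 mM NaCl, 5 mM CaCl2, 0.01% Tween20 was preincubated 15 min at room temperature with compound (up to 114 uM), then FITC-alphaIIb peptide (100 nM) added for 15 min; fluorescence polarization read.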"}, "[11]": {"assay": "Quantitative High-Throughput drug screen in 47 multiple myeloma cell lines against the NCATS MIPE library collection: H1112_PLB cell viability assay (AID 1918967)", "details": "H1112 myeloma cells viability, ATP luminescence, 48 h; series mostly up to 45.8 µM", "outline": "as §2"}, "[12]": {"target": "DNA polymerase eta (Homo sapiens) (UniProt Q9Y253)", "assay": "qHTS for Inhibitors of Polymerase Eta: Confirmatory Assay for Cherry-picked Compounds (AID 720502)", "details": "Pol eta primer extension, TAMRA/BHQ fluorescence, 10 min", "outline": "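The reaction starts with 50 nM final labeled DNA substrate added to Pol eta (10 nM) that had sat with compound for 15 min. TAMRA emission at 598 nm is read at 0 and 10 min.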"}, "[13]": {"assay": "qHTS to identify inhibitors of the type 1 interferon - major histocompatibility complex class I in skeletal muscle: primary screen against the NCATS Mechanism Interrogation Plate v5.0 (MIPE) Libary (AID 1347411)", "details": "iHSKM cells + IFN-b, HiBiT-tagged MHC-I luminescence, 24 h; activity change, negative = inhibition: at 45.8 µM (top of the series) unless noted", "outline": "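Luminescence from CRISPR HiBit-tagged endogenous HLA-B in human myoblasts reported MHC class I level after 24 h of IFN-beta (4 ng/ml) plus compound. Compounds ran as 11-point 1:3 series, top 46 uM final.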"}, "[14]": {"assay": "Cell Viability - MRC5 (AID 434; calls by dose curve)", "details": "MRC5 lung fibroblast viability, qHTS", "outline": "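ATP luminescence read-out (CellTiter-Glo, 20 min RT) after 40 hr, 37 °C compound exposure of 1500 MRC5 cells/well. Data normalized to DMSO (basal) and 100 uM tamoxifen (100% inhibition); AC50 from standard Hill equation.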"}, "[15]": {"assay": "Cell Viability - H-4-II-E (AID 543)", "details": "H-4-II-E rat hepatoma viability; series mostly up to 92.2 µM", "outline": "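CellTiter-Glo luminescence (intracellular ATP) measured after 40 h compound exposure at 37 °C in H-4-II-E rat hepatoma cells seeded at 1500/well. Values are AC50s fitted with the standard Hill equation.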"}, "[16]": {"assay": "Cell Viability - LYMP2-012 (AID 982)", "details": "LYMP2-012 lymphoblastoid cell viability qHTS; series mostly up to 92.2 µM"}, "[17]": {"target": "Bile acid receptor (Homo sapiens) (UniProt Q96RI1)", "assay": "qHTS assay for small molecule agonists of farnesoid X receptor signaling (AID 588527; calls by dose curve)", "details": "HEK293T FXR-UAS-bla, beta-lactamase ratio, 16 h; activation: stronger effect = higher value", "outline": "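FXR-UAS-bla HEK293T, 10% dialyzed FBS; cpds up to 92 uM titration, 16 h 37 C; CCF4 dye 2 h RT; fluorescence. Normalized to chenodeoxycholic acid 100 uM (100%) and DMSO (0%); Hill fit gives EC50, efficacy.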"}, "[18]": {"assay": "Cell Viability - LYMP2-005 (AID 967)", "details": "LYMP2-005 lymphoblastoid cell viability; series mostly up to 92.2 µM", "outline": "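Acute cytotoxicity is scored as a concentration-dependent drop in intracellular ATP in human lymphoblastoid LYMP2-005 cells after 24 h compound treatment. ATP is quantified by luciferase luminescence, and AC50 is derived by Hill-equation modelling.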"}, "[19]": {"assay": "qHTS Assay for Identification of Small Molecule Inducers of Hypoxia Response (AID 2120; active means well fitted curve in the direction sought with a large enough effect in the signal ratio, with a control signal flat, not every such curve was filed as active; inconclusive means small, poorly fitted or top-dose-only effect, or a change in a side signal; inactive means no such curve, though single readings can be large or run the other way; the % refers to the signal ratio)", "details": "hypoxia response reporter cells, beta-lactamase ratio readout; activation: at 104 µM (top of the series)", "outline": "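Reporter induction read as the CCF4 blue/green (460nm/530nm) emission ratio after 2.5 h dye loading at room temperature. ME-180 HRE-beta-lactamase cells received titrated compounds for 17 h at 37 degrees Celsius; AC50 values derived.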"}, "[20]": {"target": "Thyroid hormone receptor beta (Homo sapiens) (UniProt P10828)", "assay": "qHTS assay for small molecule agonists of thyroid hormone receptor beta signaling (AID 588545; calls by dose curve)", "details": "TR-UAS-bla GripTite HEK 293, beta-lactamase ratio, agonist mode, 18 h; activation: at 76.7 µM, percent of T3 response, DMSO as zero", "outline": "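In this cell-based screen, titrated compounds act on HEK 293 cells held in medium with 2% charcoal/dextran FBS, NEAA and pyruvate for 18 hrs at 37 C. Responses are expressed relative to T3 (10 nM) as 100% and basal DMSO as 0%.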"}}, "note": "Where “and” joins values, the source holds several entries; their conditions need not be identical. Equal values may be shown once. Inconclusive results, whose numbers are uncertain, are shown with a selection of clear calls. Entries that show only a call come without a potency. For some assays here: Potencies of inconclusive entries are doubtful fits and often do not repeat. Calls of active or inactive are those of the source. Unless noted, the call rests on the fitted dose curve; in most records, active means well fitted curve in the direction sought with a large enough effect; inconclusive means small, poorly fitted or top-dose-only effect, or another doubt; inactive means no such curve, though single readings can be large; an effect the other way counts as inactive or inconclusive.", "data": [{"smiles": "O=C(O)CO.[NH2-].[NH2-].[Pt+2]", "values": [{"measurement": "Potency", "setting": "[1]", "value": "inconclusive: 0.001 µM [cytotoxic]"}, {"measurement": "Potency", "setting": "[2]", "value": "inconclusive: 11.8 µM [cytotoxic, partial curve, poor fit]"}, {"measurement": "Potency", "setting": "[3]", "value": "inactive"}, {"measurement": "Potency", "setting": "[4]", "value": "inactive"}, {"measurement": "Potency", "setting": "[5]", "value": "inactive"}]}, {"smiles": "O=C(Nc1ccc(/C=C/c2ccc(NC(=O)c3cc(S(=O)(=O)O)c4cccnc4c3O)cc2S(=O)(=O)O)c(S(=O)(=O)O)c1)c1cc(S(=O)(=O)O)c2cccnc2c1O", "values": [{"measurement": "Potency", "setting": "[6]", "value": "inactive"}]}, {"smiles": "O=C(O)c1cc(N=Nc2ccc(O)c(C(=O)O)c2)ccc1O", "values": [{"measurement": "Potency", "setting": "[7]", "value": "inconclusive: 39.3 µM [inhibitor, partial curve]"}]}, {"smiles": "Oc1ccccc1", "values": [{"measurement": "Potency", "setting": "[8]", "value": "inactive"}]}, {"smiles": "C=Cc1ccccc1", "values": [{"measurement": "Potency", "setting": "[9]", "value": "inactive: > 92 µM"}]}, {"smiles": "CCN(CC)CCNC(=O)c1ccc(NS(C)(=O)=O)cc1", "values": [{"measurement": "Potency", "setting": "[10]", "value": "inactive"}]}, {"smiles": "CN1c2cc(O)c(N=NC(N)=O)cc2CC1S(=O)(=O)O", "note": "(stereo not given)", "values": [{"measurement": "Potency", "setting": "[11]", "value": "inconclusive: 0.0332 µM [rising, full curve, poor fit]"}]}, {"smiles": "C=CC1=C(C(=O)O)N2C(=O)[C@@H](NC(=O)/C(=N\\O)c3csc(N)n3)[C@H]2SC1", "note": "(stereo in doubt)", "values": [{"measurement": "Potency", "setting": "[12]", "value": "inconclusive: 84.9 µM [inhibitor, single point]"}]}, {"smiles": "NC[C@H]1O[C@H](O[C@H]2[C@H](O)[C@@H](O[C@H]3O[C@H](CO)[C@@H](O)[C@H](N)[C@H]3O)[C@H](N)C[C@@H]2N)[C@H](N)C[C@@H]1O", "values": [{"measurement": "Potency", "setting": "[13]", "value": "inactive"}]}, {"smiles": "c1ccc2ccccc2c1", "values": [{"measurement": "Potency", "setting": "[14]", "value": "inactive: > 92 µM"}, {"measurement": "Potency", "setting": "[15]", "value": "inactive"}, {"measurement": "Potency", "setting": "[16]", "value": "inactive"}]}, {"smiles": "COC(C)=O", "values": [{"measurement": "activation", "setting": "[17]", "value": "inactive: -0.0908%"}]}, {"smiles": "OC[C@H]1O[C@@H]2O[C@H]3[C@H](O)[C@@H](O)[C@@H](O[C@H]4[C@H](O)[C@@H](O)[C@@H](O[C@H]5[C@H](O)[C@@H](O)[C@@H](O[C@H]6[C@H](O)[C@@H](O)[C@@H](O[C@H]7[C@H](O)[C@@H](O)[C@@H](O[C@H]1[C@H](O)[C@H]2O)O[C@@H]7CO)O[C@@H]6CO)O[C@@H]5CO)O[C@@H]4CO)O[C@@H]3CO", "values": [{"measurement": "Potency", "setting": "[18]", "value": "inactive"}, {"measurement": "Potency", "setting": "[19]", "value": "inactive"}, {"measurement": "activation", "setting": "[20]", "value": "inactive: -18.6% and inactive: -11.4%"}]}]}
